Assay results reported in PubChem BioAssay AID2517 (National Center for Advancing Translational Sciences (NCATS), 2010).
Where “and” joins values, the source holds several entries; their conditions need not be identical. Equal values may be shown once. Hit rate of the full screen: of about 350,000 compounds, about 1,200 (0.34%) were called active. Inconclusive results, whose numbers are uncertain, are shown with a selection of clear calls. Calls follow the shape of the dose curve; as a rule, active = well fitted inhibition curve with a large enough effect; inconclusive = small, poorly fitted or top-dose-only effect; inactive = no such curve, though single readings can be large or run the other way. Potencies of inconclusive entries are doubtful fits and often do not repeat.

The chains behind the UniProt entries cited, without tags or fusion partners.
UniProt P27695, whole entry, looked up: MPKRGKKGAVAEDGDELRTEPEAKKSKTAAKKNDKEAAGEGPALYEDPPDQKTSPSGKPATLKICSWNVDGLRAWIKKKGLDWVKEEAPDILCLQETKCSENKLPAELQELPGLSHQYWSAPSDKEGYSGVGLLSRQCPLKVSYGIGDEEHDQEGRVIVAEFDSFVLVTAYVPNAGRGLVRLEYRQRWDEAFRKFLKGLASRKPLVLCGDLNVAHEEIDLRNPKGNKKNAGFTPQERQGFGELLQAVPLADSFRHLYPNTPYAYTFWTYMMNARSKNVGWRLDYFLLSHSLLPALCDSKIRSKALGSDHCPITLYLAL

Biological target: DNA repair nuclease/redox regulator APEX1 (Homo sapiens) (UniProt P27695)
Experiment: qHTS Assay for Inhibitors of the Human Apurinic/apyrimidinic Endonuclease 1 (APE1); also: nearly all actives have a fitted effect of over 55% in size
Conditions: recombinant APE1, TAMRA/BHQ-2 abasic DNA cleavage fluorescence; series mostly up to 65.8 µM
Summary of the method: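 APE1 at 0.75 nM preincubated 15 min at room temperature with compound. Reaction then started with 50 nM double-stranded THF-abasic substrate labelled with TAMRA/BHQ-2, and 525/598 nm fluorescence read kinetically. Activity taken as third-minus-first read difference, normalized to DMSO and NSC13755 controls.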
Potency is read from the fitted curve at half-maximal effect.

SMILES | Potency
O=S(=O)(c1ccccc1Cl)N1CCCC1c1nc(-c2cccc(Cl)c2)no1 (stereo unspecified) | inconclusive: 44.7 µM [inhibitor, single point]
Cc1ccc(OCCC(=O)OCC(=O)NCc2ccccc2)cc1 | inconclusive: 8.44 µM [inhibitor, single point]
O=c1cc(Cn2ccnc2)c2cc3c(cc2o1)CCC3 | inconclusive: 1.58 µM [inhibitor, partial curve]
C/C(=N\NC(=O)NC1CCCCC1)c1ccc(OC(F)F)cc1OC(F)F | inconclusive: 1.26 µM [inhibitor, full curve, poor fit]
CCOC(=O)C1=NOC2C3CC(C12)C1C(=O)N(CCc2ccc(OC)c(OC)c2)C(=O)C31 (stereo unspecified) | inconclusive: 31.6 µM [inhibitor, single point]
O=C(OCC(COC(=O)c1ccccc1)(COC(=O)c1ccccc1)COC(=O)c1ccccc1)c1ccccc1 | inactive
Cc1c(C(=O)Nc2cccc([N+](=O)[O-])c2)csc1-c1ccccc1 | inconclusive: 7.08 µM [inhibitor, single point]
CC(C)(C)c1ccc(C(=O)N2CCC(C(=O)NCC3CCCO3)CC2)cc1 (stereo unspecified) | inconclusive: 1.12 µM [inhibitor, full curve, poor fit]
CCN(c1ccc(NC(=O)COC(=O)c2ccc(S(=O)(=O)N3CCCC3)cc2)cc1)C(C)C | inconclusive: 3.98 µM [inhibitor, single point]
O=C(O)C1C2C=CC(C3CC23)C1C(=O)O (stereo unspecified) | inconclusive: 20 µM [inhibitor, single point]
O=c1[nH]c(Nc2ccccc2)cc2ccccc12 | inconclusive: 2.82 µM [inhibitor, full curve]
COc1ccc(OC)c(NC(=O)CSc2nnc(C3CCCCC3)n2-c2ccccc2)c1 | inconclusive: 7.94 µM [inhibitor, partial curve]
Cc1cc(/C=N/Nc2ccc([N+](=O)[O-])cn2)c(C)n1-c1ccccc1 | inactive
COc1cc2sc3cc(NCCCN4CCOCC4)ccc3c(=O)c2cc1OC | inactive
CCOC(=O)c1c(C)[nH]c(C(=O)COC(=O)CNC(=O)c2ccc(Cl)cc2Cl)c1C | inconclusive: 0.0158 µM [inhibitor, partial curve, poor fit]
CCOc1ccc(C=NNc2ccc(S(=O)(=O)Nc3ccccc3C(=O)O)cc2[N+](=O)[O-])cc1 | inactive
COc1cc(N=Nc2ccccc2C(=O)O)ccc1O | inconclusive: 3.16 µM [inhibitor, single point]
CCCSc1nc(C)c(-c2csc(C(C#N)=C3CCCC3)n2)cc1C#N | inconclusive: 5.01 µM [inhibitor, full curve]
COc1ccc2o/c(=N/NC(=S)Nc3ccccc3)c(C(N)=O)cc2c1 | inactive
O=C(C(=S)N1CCOCC1)c1c[nH]c2ccccc12 | inconclusive: 31.6 µM [inhibitor, single point]
COc1ccc(Cl)cc1NC(=O)CN(C)CC(=O)Nc1ccc(C)cc1Br | inactive
O=C(N/N=C/C=C\c1ccco1)c1cccnc1 | inactive
NC(=O)CC1Nc2cccc3cccc(c23)NC1=O (stereo unspecified) | inactive
CN(C)c1ccc(P(=O)(OC2CCCCC2)C(O)c2ccncc2)cc1 (stereo unspecified) | inactive

Looked up one by one from above (three):
SMILES | Potency
COc1ccc2o/c(=N/NC(=S)Nc3ccccc3)c(C(N)=O)cc2c1 | inactive
O=C(C(=S)N1CCOCC1)c1c[nH]c2ccccc12 | inconclusive: 31.6 µM [inhibitor, single point]
CN(C)c1ccc(P(=O)(OC2CCCCC2)C(O)c2ccncc2)cc1 (stereo unspecified) | inactive

The list goes on.

SMILES | Potency
Cc1ccc(C(=O)CSc2nccn2-c2ccccc2)cc1 | inconclusive: 35.5 µM [inhibitor, single point]
CCc1ccccc1-n1c(-c2ccncc2)n[nH]c1=S | active: 31.6 µM
CC(=O)c1ccc(N2CCN(C(=O)CN(C)S(=O)(=O)c3cnc[nH]3)CC2)cc1 | inconclusive: 35.5 µM [inhibitor, single point]
C=C1CCC(C)C(C)(CCC2=CCOC2=O)C/C=C\C=C/1C(=O)O (stereo unspecified) | inconclusive: 5.62 µM [inhibitor, partial curve, poor fit]
O=C(CSCc1ccc(Cl)cc1)N/N=C/c1ccc(OCC(=O)Nc2ccccc2)cc1 | inactive
Cc1cc(C(=O)N/N=C/c2cc(N=Nc3ccccc3)ccc2O)n[nH]1 | inactive
Cc1ccc2nc(NC(=O)c3ccccn3)sc2c1 | inconclusive: 20 µM [inhibitor, single point]
O=[N+]([O-])c1ccc(NCCNS(=O)(=O)c2ccccc2)c(C(F)(F)F)c1 | inactive
COc1ccc(OCC(=O)NCCCN2CCOCC2)cc1 | inconclusive: 15.8 µM [inhibitor, partial curve]
O=C(NCc1nnc2c(C(F)(F)F)cc(Cl)cn12)c1cccs1 | inactive
Cc1cccc(OCC(=O)NNC(=O)c2ccc([N+](=O)[O-])cc2)c1 | inactive
O=C(COC(=O)c1ccccc1O)NCCCc1ccccc1 | inconclusive: 31.6 µM [inhibitor, single point]
O=C(Nc1n[nH]c(=S)s1)c1ccco1 | inactive
Cc1csc(SCCN2C(=O)c3ccccc3C2=O)n1 | inconclusive: 5.62 µM [inhibitor, partial curve]
Cc1ccc2[nH]c(C(=O)N/N=C/c3ccccc3O)c(C)c2c1 | inconclusive: 0.844 µM [inhibitor, single point]
CCOC(=O)N1CCN(CC(=O)Nc2cccc(Br)c2)CC1 | inconclusive: 0.631 µM [inhibitor, partial curve, poor fit]
CN=c1scc(C)n1/N=C/c1ccc(O)c(O)c1O | active: 7.08 µM
COc1cc(O)c(NC(C)=O)c2nonc12 | inconclusive: 44.7 µM [inhibitor, single point]
COc1ccccc1C(=O)Nc1cccnc1 | inconclusive: 44.7 µM [inhibitor, single point]
O=C(Nc1ccc(Cn2cccn2)cc1)c1ccc(COc2ccccc2Br)cc1 | inconclusive: 44.7 µM [inhibitor, single point]
O=C(N/N=C/c1cn(Cc2cccc(F)c2)c2ccccc12)c1cc(O)cc(O)c1 | active: 1.5 µM
O=C(CSc1nc(-c2ccc(F)cc2)nc2c1Cc1ccccc1O2)Nc1cccc(C(=O)O)c1 | active: 2.99 µM
COc1ccc(O)c(N)c1 | inconclusive: 3.16 µM [inhibitor, full curve]
COc1cc(NC(=O)C2CC(=O)N(CCc3ccccc3)C2)cc(OC)c1 (stereo unspecified) | inactive

SMILES | Potency
CC(C)CCNC(=O)Cc1ccccc1[N+](=O)[O-] | inconclusive: 0.891 µM [inhibitor, full curve, poor fit]
Cc1cccc(C)c1NC(=O)NCCSc1snnc1C | inconclusive: 44.7 µM [inhibitor, single point]
S=c1[nH]nc(-c2ccccn2)n1/N=C/c1cccs1 | inactive
O=c1c(-c2ccc(O[C@@H]3O[C@H](CO)[C@@H](O)[C@H](O)[C@H]3O)cc2)coc2cc(O)cc(O)c12 | inconclusive: 44.7 µM [inhibitor, single point]
CS(=O)(=O)N(CC(=O)N/N=C/c1ccccn1)c1ccc(Oc2ccccc2)cc1 | inconclusive: 17.8 µM [inhibitor, partial curve]
COc1ccc(C(=O)OCC(=O)Nc2ncc([N+](=O)[O-])s2)cc1OC | inconclusive: 11.9 µM [inhibitor, single point]
COC(=O)Cn1c(C(=O)N(C)C)cc2c1C[C@H]1CN(C(=O)c3ccccc3)[C@@](Cc3ccc(F)cc3)(C(=O)OC)[C@@H]21 | inconclusive: 0.158 µM [inhibitor, full curve, poor fit]
Cc1nc2nc[nH]n2c(=O)c1NS(C)(=O)=O | inactive
C=CCn1c(=O)[nH]c2cc(C(=O)N3CCN(c4ccc(C(C)=O)cc4)CC3)ccc2c1=O | inactive
N#CC1=C(N)Oc2n[nH]c(-c3cccs3)c2C1C1CCCCC1 (stereo unspecified) | inconclusive: 7.94 µM [inhibitor, full curve]
O=c1c2ccccc2[nH]c(=S)n1-c1cccc(S(=O)(=O)N2CCCC2)c1 | inconclusive: 28.2 µM [inhibitor, single point]
NC(=O)c1cccc(N)c1 | inconclusive: 14.1 µM [inhibitor, full curve]
O=[N+]([O-])c1cccnc1Oc1ccc(F)cc1 | inconclusive: 3.55 µM [inhibitor, single point]
CN(C)CCNc1ncnc2oc(-c3ccccc3)c(-c3ccccc3)c12 | inactive
COc1cc(/C=C2\C(=O)N(c3ccccc3)N=C2C)ccc1Oc1ccc([N+](=O)[O-])cc1[N+](=O)[O-] | inconclusive: 20 µM [inhibitor, single point]
CC(=O)C(=Cc1ccc(C(=O)O)cc1)C(C)=O | inconclusive: 17.8 µM [inhibitor, partial curve]
Nc1nc(SCC(=O)c2ccc(F)cc2)n[nH]1 | inactive
O=S(=O)(Nc1cc(Sc2ncn[nH]2)c(O)c2ccccc12)c1ccccc1 | inactive
O=C(N/N=C/c1ccc(OCc2ccccc2)cc1)c1cc[n+](Cc2ccccc2)cc1 | inactive
O=C(Nc1ccccc1F)c1coc(=O)c(Br)c1 | inconclusive: 35.5 µM [inhibitor, single point]
CO[C@@H]1COC(=O)[C@H](COCc2ccccc2)NC(=O)C/C=C\[C@@H](C)[C@H](OC)COC(=O)[C@H](COCc2ccccc2)NC(=O)C/C=C\[C@H]1C | inconclusive: 4.47 µM [inhibitor, single point]
CN(C)CCc1cc2c(c3c1ccc1ccccc13)OCO2 | inactive and inconclusive: 22.4 µM [inhibitor, single point]
Nc1ccc(C(=O)OCC(=O)NC2CC2)cc1[N+](=O)[O-] | inconclusive: 39.8 µM [inhibitor, single point]
